According to US20030114362A1 (Novaspin Biotech GmbH, priority 2001, published 2003):

Assay: general procedure: Fmoc solid-phase peptide synthesis; Tritylchloropolystyrene (TCP) resin, PepChem Goldammer & Clausen; HATU/HOAt/2,4,6-collidine
Conditions: whole synthesis

Substance	isolated yield [%]
cyclo[-Phe-DTrp-Lys-Z1-]	36
cyclo[-Phe-Trp-Lys-Z1-]	33
